Measured values taken from US20110263693A1, “CELASTROL, GEDUNIN, AND DERIVATIVES THEREOF AS HSP90 INHIBITORS” (DANA-FARBER CANCER INSTITUTE, INC., priority 2006, published 2011).

Tested on: LNCaP cells

For CN(C)CCOC(c1ccccc1)c1ccccc1.Cn1c(=O)c2[nH]c(Cl)nc2n(C)c1=O [dimenhydrinate, reference compound], which “viability screen: viability (% [ATP] normalized to R1881-treated control)” value is on record?
Its value is 102.9%.
